Source: PubChem BioAssay AID1224830 (NIAID, 2016)
Shown is an unselected part of about 18,000 reagents. About 2,900 of them (16%) were called active. 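Calls are made per well; low scores hint the gene aids the LPS response, high scores that it dampens it.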 Entries without a mark were called inactive. Repeated entries: four replicate wells of each siRNA pool.

Purpose: 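Genes whose knock-down alters the TNF-alpha reporter response to LPS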 (primary screen)
Cell system: human THP-1 monocytic leukaemia cells, TNF dual-luciferase reporter clone, PMA-differentiated to macrophage-like cells
Reagent: siRNA pool against human genes, 50 nM
Timing: LPS for 4 h, given about 3 days after siRNA transfection
Conditions: bacterial LPS (TLR4 ligand), 10 ng/ml
Read-out: 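TNF firefly reporter luminescence divided by renilla, normalised to the plate median, then turned into a robust z-score for each replicate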
Direction: TNF reporter robust z-score: higher = stronger TNF reporter response to LPS
Rule for the call: 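Each well counts as active if its z-score is over 2.8 or under -1.5; controls are left without a call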

BECN1 | TNF reporter robust z-score: 1.66
BECN1 | TNF reporter robust z-score: 1.86
BECN1 | TNF reporter robust z-score: 3.44 (active)
BECN1 | TNF reporter robust z-score: 3.25 (active)
LRRC63 | TNF reporter robust z-score: -1
LRRC63 | TNF reporter robust z-score: -1.05
LRRC63 | TNF reporter robust z-score: -1.33
LRRC63 | TNF reporter robust z-score: -0.1
SUPT16H | TNF reporter robust z-score: -0.27
SUPT16H | TNF reporter robust z-score: 0.55
SUPT16H | TNF reporter robust z-score: 0.8
SUPT16H | TNF reporter robust z-score: 3.08 (active)
SH3BP1 | TNF reporter robust z-score: -0.24
SH3BP1 | TNF reporter robust z-score: 2.5
SH3BP1 | TNF reporter robust z-score: 0.43
SH3BP1 | TNF reporter robust z-score: -0.01
ARL13B | TNF reporter robust z-score: 0.9
ARL13B | TNF reporter robust z-score: 2.33
ARL13B | TNF reporter robust z-score: -0.24
ARL13B | TNF reporter robust z-score: 0.83
HOXA7 | TNF reporter robust z-score: 0.09
HOXA7 | TNF reporter robust z-score: 0.18
HOXA7 | TNF reporter robust z-score: 0.25
HOXA7 | TNF reporter robust z-score: 1.33
FNDC8 | TNF reporter robust z-score: -0.51
FNDC8 | TNF reporter robust z-score: -0.08
FNDC8 | TNF reporter robust z-score: -1.32
FNDC8 | TNF reporter robust z-score: -0.58
H3C11 | TNF reporter robust z-score: 0.22
H3C11 | TNF reporter robust z-score: -0.35
H3C11 | TNF reporter robust z-score: 1.69
H3C11 | TNF reporter robust z-score: 2.27
LMCD1 | TNF reporter robust z-score: -0.57
LMCD1 | TNF reporter robust z-score: -0.63
LMCD1 | TNF reporter robust z-score: -1.48
LMCD1 | TNF reporter robust z-score: -0.89
UGCG | TNF reporter robust z-score: -1.07
UGCG | TNF reporter robust z-score: 1.13
UGCG | TNF reporter robust z-score: -0.07
UGCG | TNF reporter robust z-score: 0.58
DSC2 | TNF reporter robust z-score: -0.65
DSC2 | TNF reporter robust z-score: 127 (active)
DSC2 | TNF reporter robust z-score: -0.33
DSC2 | TNF reporter robust z-score: 1.63
STPG3 | TNF reporter robust z-score: 0.01
STPG3 | TNF reporter robust z-score: 0.45
STPG3 | TNF reporter robust z-score: -0.23
STPG3 | TNF reporter robust z-score: 0.44
